PubChem BioAssay AID1159590 – NIAID, 2016

Test: 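Effect of gene knock-down on p65 moving into nuclei after TLR2 stimulation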
System: mouse RAW264.7 macrophage reporter cells expressing GFP-p65 and a Tnf promoter-mCherry
Reagent: single siRNA against mouse genes
Time to read-out: 48 to 72 hours after siRNA transfection, then 40 minutes of ligand
Conditions: Pam3CSK4 (TLR2/1 agonist) for 40 minutes before fixation; dose not given
Measured: 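p65 nuclear translocation measured by high-content imaging, shown for each siRNA as a robust z-score averaged across replicates, relative to negative controls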
Reading the numbers: p65 nuclear entry z-score: higher = more p65 moved into nuclei than in negative-control wells
Hit rule: In these data the active calls have p65 nuclear entry z-score, replicate mean at about -1.5 or lower, or at about 1.5 or higher
Meaning of the calls: active = strong change, up or down; inactive = little change
Shown is one part, drawn at random, of 756 deposited reagents. 128 of them (17%) were called active. 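Calls are two-sided: both reduced and increased p65 nuclear entry count as active.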 A number with no mark means an inactive call. The numbers tell different reagents against one gene apart. Not stated in the record: the amount of reagent.

{"Target gene":"Akt1","reagent no.":1,"p65 nuclear entry z-score, replicate mean":-1.11}
{"Target gene":"Akt1","reagent no.":2,"p65 nuclear entry z-score, replicate mean":"-2.14 (active)"}
{"Target gene":"Akt1","reagent no.":3,"p65 nuclear entry z-score, replicate mean":-0.135}
{"Target gene":"Akt1","reagent no.":4,"p65 nuclear entry z-score, replicate mean":"4.02 (active)"}
{"Target gene":"Akt1","reagent no.":5,"p65 nuclear entry z-score, replicate mean":-1.16}
{"Target gene":"Akt1","reagent no.":6,"p65 nuclear entry z-score, replicate mean":-0.477}
{"Target gene":"Egr2","reagent no.":1,"p65 nuclear entry z-score, replicate mean":-0.948}
{"Target gene":"Egr2","reagent no.":2,"p65 nuclear entry z-score, replicate mean":-0.218}
{"Target gene":"Egr2","reagent no.":3,"p65 nuclear entry z-score, replicate mean":-1.42}
{"Target gene":"Egr2","reagent no.":4,"p65 nuclear entry z-score, replicate mean":"2.75 (active)"}
{"Target gene":"Egr2","reagent no.":5,"p65 nuclear entry z-score, replicate mean":-0.506}
{"Target gene":"Egr2","reagent no.":6,"p65 nuclear entry z-score, replicate mean":"2.04 (active)"}
{"Target gene":"Cxcl9","reagent no.":1,"p65 nuclear entry z-score, replicate mean":-1.09}
{"Target gene":"Cxcl9","reagent no.":2,"p65 nuclear entry z-score, replicate mean":-0.623}
{"Target gene":"Cxcl9","reagent no.":3,"p65 nuclear entry z-score, replicate mean":-0.354}
{"Target gene":"Cxcl9","reagent no.":4,"p65 nuclear entry z-score, replicate mean":0.0113}
{"Target gene":"Cxcl9","reagent no.":5,"p65 nuclear entry z-score, replicate mean":-0.617}
{"Target gene":"Cxcl9","reagent no.":6,"p65 nuclear entry z-score, replicate mean":-1.41}
{"Target gene":"Ube2v1","reagent no.":1,"p65 nuclear entry z-score, replicate mean":1.45}
{"Target gene":"Ube2v1","reagent no.":2,"p65 nuclear entry z-score, replicate mean":-0.685}
{"Target gene":"Ube2v1","reagent no.":3,"p65 nuclear entry z-score, replicate mean":-0.0773}
{"Target gene":"Ube2v1","reagent no.":4,"p65 nuclear entry z-score, replicate mean":-1.5}
{"Target gene":"Ube2v1","reagent no.":5,"p65 nuclear entry z-score, replicate mean":-0.308}
{"Target gene":"Ube2v1","reagent no.":6,"p65 nuclear entry z-score, replicate mean":"1.89 (active)"}
{"Target gene":"Pik3cg","reagent no.":1,"p65 nuclear entry z-score, replicate mean":-0.0129}
{"Target gene":"Pik3cg","reagent no.":2,"p65 nuclear entry z-score, replicate mean":-0.884}
{"Target gene":"Pik3cg","reagent no.":3,"p65 nuclear entry z-score, replicate mean":-0.263}
{"Target gene":"Pik3cg","reagent no.":4,"p65 nuclear entry z-score, replicate mean":0.49}
{"Target gene":"Pik3cg","reagent no.":5,"p65 nuclear entry z-score, replicate mean":-0.305}
{"Target gene":"Pik3cg","reagent no.":6,"p65 nuclear entry z-score, replicate mean":"3.13 (active)"}
{"Target gene":"Pik3cd","reagent no.":1,"p65 nuclear entry z-score, replicate mean":0.217}
{"Target gene":"Pik3cd","reagent no.":2,"p65 nuclear entry z-score, replicate mean":-0.821}
{"Target gene":"Pik3cd","reagent no.":3,"p65 nuclear entry z-score, replicate mean":-0.311}
{"Target gene":"Pik3cd","reagent no.":4,"p65 nuclear entry z-score, replicate mean":0.873}
{"Target gene":"Pik3cd","reagent no.":5,"p65 nuclear entry z-score, replicate mean":-0.526}
{"Target gene":"Pik3cd","reagent no.":6,"p65 nuclear entry z-score, replicate mean":-0.0666}
{"Target gene":"Fadd","reagent no.":1,"p65 nuclear entry z-score, replicate mean":-0.782}
{"Target gene":"Fadd","reagent no.":2,"p65 nuclear entry z-score, replicate mean":-0.217}
{"Target gene":"Fadd","reagent no.":3,"p65 nuclear entry z-score, replicate mean":-0.728}
{"Target gene":"Fadd","reagent no.":4,"p65 nuclear entry z-score, replicate mean":-0.59}
{"Target gene":"Fadd","reagent no.":5,"p65 nuclear entry z-score, replicate mean":"-1.56 (active)"}
{"Target gene":"Fadd","reagent no.":6,"p65 nuclear entry z-score, replicate mean":-0.219}
{"Target gene":"Itgam","reagent no.":1,"p65 nuclear entry z-score, replicate mean":0.423}
{"Target gene":"Itgam","reagent no.":2,"p65 nuclear entry z-score, replicate mean":-0.408}
{"Target gene":"Itgam","reagent no.":3,"p65 nuclear entry z-score, replicate mean":"-1.55 (active)"}
{"Target gene":"Itgam","reagent no.":4,"p65 nuclear entry z-score, replicate mean":0.724}
{"Target gene":"Itgam","reagent no.":5,"p65 nuclear entry z-score, replicate mean":-1.11}
{"Target gene":"Itgam","reagent no.":6,"p65 nuclear entry z-score, replicate mean":-0.929}
{"Target gene":"Tlr4","reagent no.":1,"p65 nuclear entry z-score, replicate mean":0.567}
{"Target gene":"Tlr4","reagent no.":2,"p65 nuclear entry z-score, replicate mean":0.725}
{"Target gene":"Tlr4","reagent no.":3,"p65 nuclear entry z-score, replicate mean":0.478}
{"Target gene":"Tlr4","reagent no.":4,"p65 nuclear entry z-score, replicate mean":0.401}
{"Target gene":"Tlr4","reagent no.":5,"p65 nuclear entry z-score, replicate mean":-0.363}
{"Target gene":"Tlr4","reagent no.":6,"p65 nuclear entry z-score, replicate mean":-1.3}
{"Target gene":"Myd88","reagent no.":1,"p65 nuclear entry z-score, replicate mean":0.436}
{"Target gene":"Myd88","reagent no.":2,"p65 nuclear entry z-score, replicate mean":"-1.65 (active)"}
{"Target gene":"Myd88","reagent no.":3,"p65 nuclear entry z-score, replicate mean":"-2.78 (active)"}
{"Target gene":"Myd88","reagent no.":4,"p65 nuclear entry z-score, replicate mean":-0.248}
{"Target gene":"Myd88","reagent no.":5,"p65 nuclear entry z-score, replicate mean":0.0717}
{"Target gene":"Myd88","reagent no.":6,"p65 nuclear entry z-score, replicate mean":-0.919}
